The results in this text go back to PMC7819943, “Rice protein-binding microarrays: a tool to detect cis-acting elements near promoter regions in rice”.

Protein sequences, listed by entry. Tags and fused reporters are not part of them.
UniProt Q0JBA9, entry or part of it: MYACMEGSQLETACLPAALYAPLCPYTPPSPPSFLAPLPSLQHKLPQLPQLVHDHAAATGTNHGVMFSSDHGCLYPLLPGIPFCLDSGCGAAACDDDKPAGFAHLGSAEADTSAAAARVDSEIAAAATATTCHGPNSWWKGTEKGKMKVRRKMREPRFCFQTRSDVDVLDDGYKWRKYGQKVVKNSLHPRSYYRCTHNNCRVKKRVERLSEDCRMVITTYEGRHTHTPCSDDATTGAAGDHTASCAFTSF

This is one part of the list.

The target in the test is OsWRKY34 (Oryza sativa, UniProt Q0JBA9 1-250). Put plainly: protein-binding microarray (RPBM); PBS, 2% BSA, 51.3 ng/ul salmon testes DNA, 50 uM zinc acetate, 200 nM TF, 25 C, 1 h; high values mean tight binding. The conditions noted are these: protein: recombinant; tags: N-terminal polyhistidine and DsRed monomer fusion (pET32a); label: CyDye5-dUTP incorporated in the synthesized complementary strand; 3' TTTTT single-stranded linker to array surface; dsDNA, one strand shown. In a few lines: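 An Axon 4000B scanner gave the binding signal as per-feature fluorescence intensity in arbitrary units. This followed washing of a custom Agilent array that had been incubated for 1 h at 25 °C with 200 nM protein in PBS, 2% BSA, salmon testes DNA and 50 µM zinc acetate. The proteins were transcription factors fused at the N-terminus to polyhistidine and DsRed, expressed in E. coli BL21-CodonPlus and purified on Ni–NTA.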
“AGGGACAGTTTGGTAAATTCGCATAGGAGTGCTTCTTATCCGGAGTCACCTAGTGCAG”: the binding signal is 8700 fluorescence intensity (a.u.).

Turning to “ACAGTTCCACATCAAAACAAACCTGCTCTGTTTTTTATTCCGGAGTCACCTAGTGCAG”, the binding signal was 9200 fluorescence intensity (a.u.).

Consider “TCTGCGCCATCCACGCCAAGCGCGTCACCATCATGCCCAACGGAGTCACCTAGTGCAG”, for which the binding signal was 10200 fluorescence intensity (a.u.).

As to “GTGTTGTGTGTGTCCCTCTCTTGTGATCAGGTTGCATCTACGGAGTCACCTAGTGCAG”, the binding signal was 8440 fluorescence intensity (a.u.).

On to “TCCACGCCAGAATCCCTCAACCACGCCTCAGTTGCCTCTCCGGAGTCACCTAGTGCAG”, for which the binding signal was 9790 fluorescence intensity (a.u.).

As to “CCTCCCACCTTCCCGTTTCTTCTTTCTTGCGCCGCAAGAACGGAGTCACCTAGTGCAG”, the binding signal was 8030 fluorescence intensity (a.u.).

Turning to “TAGTTCGTGTTCATCCACAATGTTTTACTGCTGCCCTGGACGGAGTCACCTAGTGCAG”, the binding signal is 8970 fluorescence intensity (a.u.).

Regarding “GGTTTGGGTTCCTCTCTCGTCTCGTCTGTTTTGTTTTCCCCGGAGTCACCTAGTGCAG”, the binding signal is 21900 fluorescence intensity (a.u.).

As to “ATCCGAAACTCACGACACCTCTCTCTCTCTCTCCCAGCTGCGGAGTCACCTAGTGCAG”, the binding signal was 8200 fluorescence intensity (a.u.).

As for “CGCGCATATATCTTCTCCCCGCTCACCACAGCCATTCGTCCGGAGTCACCTAGTGCAG”, the binding signal is 9700 fluorescence intensity (a.u.).

Take “GCTAACTAGCCTGTCTTTTCTTGTGTCCTTGGGCAATTCTCGGAGTCACCTAGTGCAG”: the binding signal is 8990 fluorescence intensity (a.u.).

In the case of “GCTTTAACTATTACTCCCTTCGTTTCAGTTTATAAGACGTCGGAGTCACCTAGTGCAG”, the binding signal was 8110 fluorescence intensity (a.u.).

On to “CAAGTGTGCCTTTGTCTCTTACCAGCCAGCCATTATTCAACGGAGTCACCTAGTGCAG”, for which the binding signal was 8200 fluorescence intensity (a.u.).

With “TCTTTCCCACGACCACACATAAGCTTCTCCCTCGATCTCTCGGAGTCACCTAGTGCAG”, the binding signal was 8750 fluorescence intensity (a.u.).

Turning to “CTCCGACCTTCCGCTGCTCGTTTTCCTCGTCGCCACTCCCCGGAGTCACCTAGTGCAG”, the binding signal was 9180 fluorescence intensity (a.u.).

For “GGTGGGTCCGTCCGAGTTTCATTTTTTACTACTACCTTTTCGGAGTCACCTAGTGCAG”, the binding signal was 11000 fluorescence intensity (a.u.).

For “TCGCCACCGCATCCCATATCCCTCCGCCGCGCGCGGCATGCGGAGTCACCTAGTGCAG”, the binding signal is 9630 fluorescence intensity (a.u.).

As for “TGCATGTATTTGGTGGAGGGTTTTGTGGATTGGGTTCATGCGGAGTCACCTAGTGCAG”, the binding signal was 13200 fluorescence intensity (a.u.).

Regarding “GGCTCTGCACGCTCACCACCTCATCTCTCGTTCTTACACTCGGAGTCACCTAGTGCAG”, the binding signal is 8350 fluorescence intensity (a.u.).

On to “CTTCTTTCTTTGACCTTTTATTTTGCCAAATTACAGATGCCGGAGTCACCTAGTGCAG”, for which the binding signal was 9250 fluorescence intensity (a.u.).

As for “ATATATGTCCATGGAGGAGGGTGAGGGGAGTAGTAGGGCGCGGAGTCACCTAGTGCAG”, the binding signal was 9340 fluorescence intensity (a.u.).

Turning to “TCTGCAATAGGGTAACTTCACGATCTCAGCTGTCACTCACCGGAGTCACCTAGTGCAG”, the binding signal is 8660 fluorescence intensity (a.u.).

Regarding “TTAAATGTTCGATGTGATAGGGTAAAAATTTTTGGGCGGGCGGAGTCACCTAGTGCAG”, the binding signal is 9660 fluorescence intensity (a.u.).

On to “CATATCTTTGACCATTCGTCTTATTTAAAAACTTTTATGACGGAGTCACCTAGTGCAG”, for which the binding signal was 8270 fluorescence intensity (a.u.).

For the sequence “CATTAACTACATCCAGTTATCAGCCCTGTCGTTTCTCTGCCGGAGTCACCTAGTGCAG”, the binding signal was 8650 fluorescence intensity (a.u.).

Consider “TTTTGGGAATTGGAATTGCATATAGACGGTTTGATTTCTTCGGAGTCACCTAGTGCAG”, for which the binding signal was 9260 fluorescence intensity (a.u.).

In the case of “GATGGACCCTCAACCAGCTAGCACACGCAGCTGACACACACGGAGTCACCTAGTGCAG”, the binding signal was 8210 fluorescence intensity (a.u.).

Take “CATCCGTCATGCCTCACGACAAACCGCGGACGACGCGCACCGGAGTCACCTAGTGCAG”: the binding signal was 8230 fluorescence intensity (a.u.).

For the sequence “TTTCACGTCCAATATTTGACTGTTTGTCTTATGTGAAATTCGGAGTCACCTAGTGCAG”, the binding signal was 9640 fluorescence intensity (a.u.).

For the sequence “ACATATGAGCTACTTCTCTTGCATATTTGTTTCTTTGTGTCGGAGTCACCTAGTGCAG”, the binding signal is 10500 fluorescence intensity (a.u.).

“TATGTAGACGACTCGAGTGCTTTTTCCCAACATTCATTCCCGGAGTCACCTAGTGCAG”: the binding signal is 8180 fluorescence intensity (a.u.).

Turning to “GCCCATTAATTTTAGTCGGTGTGGCTGGTTTGTTCACTGACGGAGTCACCTAGTGCAG”, the binding signal was 8540 fluorescence intensity (a.u.).

Consider “TCTATTTTTTGAGACATATGTAGTATTTACCAGCTCTTTTCGGAGTCACCTAGTGCAG”, for which the binding signal was 9090 fluorescence intensity (a.u.).

On to “AACCCACTTCGCTTTGGATCGGAACACAGCGCGCCCGACACGGAGTCACCTAGTGCAG”, for which the binding signal is 9150 fluorescence intensity (a.u.).

On to “GATTGTTGGGAAACGAGTTTTCCGCCCGCTTCTCTGGTTTCGGAGTCACCTAGTGCAG”, for which the binding signal was 8800 fluorescence intensity (a.u.).

For “ACCGTTGACTGGAACTCGTACGGATACAGCGGGTAGTTGCCGGAGTCACCTAGTGCAG”, the binding signal is 10300 fluorescence intensity (a.u.).

Regarding “CCGCCCCATCACCATGCCGCCTCGGGCGAGCTCGCCCGCCCGGAGTCACCTAGTGCAG”, the binding signal was 8700 fluorescence intensity (a.u.).

Take “TAATAAGTGAGACCAAATATTGATTGTGTAGTATATATTTCGGAGTCACCTAGTGCAG”: the binding signal is 8670 fluorescence intensity (a.u.).

For the sequence “TGGCCACATCTTTTCTAGCCTTCTAGCTGATATCAACCTCCGGAGTCACCTAGTGCAG”, the binding signal is 8790 fluorescence intensity (a.u.).

As for “CTTCTCGTACAACCCGCTCGATTCTTCGTGTTCGGTTCCACGGAGTCACCTAGTGCAG”, the binding signal is 11900 fluorescence intensity (a.u.).

As to “CGCGGAACGCACGCTACCGCTCCCAAGTCCGAAACCTCCGCGGAGTCACCTAGTGCAG”, the binding signal is 9050 fluorescence intensity (a.u.).

As to “ACATGAGCCCCATATATCAGCGGTCAACTCTTTTTTTCCTCGGAGTCACCTAGTGCAG”, the binding signal is 10600 fluorescence intensity (a.u.).

Take “TTTTCTTTGCAAAGTTTTAGGTATTCCAATATAGGTACTTCGGAGTCACCTAGTGCAG”: the binding signal is 8680 fluorescence intensity (a.u.).

With “CTGGTGCTAATGTTGATCTGCTGGCCTGCCGCTGCTGCTTCGGAGTCACCTAGTGCAG”, the binding signal was 8580 fluorescence intensity (a.u.).

On to “TTTTAACCTCTTGAAAGTTTTTCTTTGTGTCTATCTCTCTCGGAGTCACCTAGTGCAG”, for which the binding signal was 8230 fluorescence intensity (a.u.).

Turning to “GCAATTGGAGGGGATGGAAGAAGATGATTCGCTTTTTTTTCGGAGTCACCTAGTGCAG”, the binding signal is 9740 fluorescence intensity (a.u.).

“TGCCAATGCCAGGGTTTTCGTCGGTTTTACATAAATTAACCGGAGTCACCTAGTGCAG”: the binding signal is 8500 fluorescence intensity (a.u.).

Regarding “ATTTGATCCTCTTTTTTCAACTTTGCTTATTTGACCCTTCCGGAGTCACCTAGTGCAG”, the binding signal was 11100 fluorescence intensity (a.u.).

Turning to “GCCGCCGCCTCGCTCCCCATGGCGTCCGTACACTCCGGCGCGGAGTCACCTAGTGCAG”, the binding signal is 10300 fluorescence intensity (a.u.).

Consider “TATATCACATCCGGTTTTAGATTCGTTTTTTATAGGACGGCGGAGTCACCTAGTGCAG”, for which the binding signal is 8050 fluorescence intensity (a.u.).

Take “ATCTCAGCCATCCGTTTTTATTAATGACCTAATCTCCAACCGGAGTCACCTAGTGCAG”: the binding signal is 9090 fluorescence intensity (a.u.).

In the case of “CGGTCGCGGAGTTCACATCCCTCGCCCCGCCGCGGCGAATCGGAGTCACCTAGTGCAG”, the binding signal was 10200 fluorescence intensity (a.u.).

With “CATGATTTCTCGGGGTCTCGTTCTCGCCGGGTCGTCTCGACGGAGTCACCTAGTGCAG”, the binding signal was 8780 fluorescence intensity (a.u.).

With “TTGGGATTTGTTGATTGTAGTGTTAAATGTGTGCAATGTGCGGAGTCACCTAGTGCAG”, the binding signal is 9130 fluorescence intensity (a.u.).
